“Also recorded” adds a separate entry of the source.
How the values were obtained:
HepG2 hepatocytes = test: Co-culture assay: Specific Chol Uptake into HepG2 hepatocytes on insert membrane; type: cell-based, human; conditions: for combined effect on Specific Chol Uptake: HepG2 25 μM atorvastatin plus J774 300 μM cAMP
Excerpt: (§1) Total Chol Efflux is the sum of co-culture medium counts plus hepatic counts, while Total Chol Uptake is defined as hepatic counts only. Both Chol Efflux and Chol Uptake are expressed as % of total counts in the system. Background values, corresponding to basal co-culture medium (without acceptors), can be subtracted from the corresponding values in presence of acceptors to obtain Specific Chol Efflux (%) and Specific Chol Uptake (%) values.
(§2) Simultaneous Measurement of Cholesterol Flux Between Cholesterol-Loaded, ^3H-Cholesterol-Labeled J774 Cells and Target HepG2 Hepatocytes in a Transwell-Clear™ Insert.
(§3) J774 cells were seeded at a density of 8,000 cells per cm^2 in 1 mL of Dulbecco's minimal essential medium (DMEM, high glucose) and supplemented with 10% fetal bovine serum (FBS) and 1% penicillin/streptomycin in standard 12-well (3.8 cm^2) flat bottom plates (Corning).
Transwell-Clear™ 12-well plates (Corning, cat. #3642), each consisting of 12 cylindrical cell culture inserts (1.12 cm^2 insert/well) were bathed with 2 mL Eagle's minimal essential medium (EMEM, low glucose) distributed as follows: 0.5 mL in the insert and 1.5 mL in the well. Loaded plates were pre-incubated in an incubator at 37° C. with 5% CO2 for 30-45 min without cells in order to improve later cell attachment and maximize cell spreading on the insert membrane during cell culture. After pre-incubation, the media was removed. The wells of the Transwell plates were then filled with 1.5 mL of EMEM (low glucose) supplemented with 10% FBS and 1% penicillin/streptomycin and HepG2 cells were seeded at a density of 60,000 cells per cm^2 in 0.5 mL EMEM (low glucose) supplemented with 10% FBS and 1% penicillin/streptomycin on each insert.
(§4) Following seeding in plates or inserts, both cell types were placed in a cell incubator at 37° C. filled with humidified air and 5% CO2 and incubated for 72 h.
(§5) Following the 72-hour incubation and achieving a J774 cell confluence of 70-80%, the J774 cells were washed with 1 mL per well of PBS at 20° C. After the wash, 1 mL of Labeling Medium was added to each well. The Labeling Medium contained: 1% FBS, 1% penicillin/streptomycin, 2 μCi/mL of ^3H-cholesterol (Perkin-Elmer, NET139005MC), 50 μg protein/mL of acetylated LDL (acLDL) and DMEM (high glucose). The cells were then incubated for 24 hr at 37° C. in a cell incubator filled with humidified air and 5% CO2. One plate served as a reference to determine the labeled-cholesterol level in cells prior to co-culture assay.
(§6) Following the 72-hour incubation, the culture medium was removed from HepG2 cells grown on the insert membrane and replaced with 2 mL of fresh EMEM (low glucose) supplemented with 10% FBS and 1% penicillin/streptomycin. The cells were then incubated for an additional 24 hours at 37° C. in an incubator filled with humidified air and 5% CO2.
Following the 24-hour incubation of J774 cells, the labeling medium was removed from the plates and discarded. The cells were then washed with 1 mL of phosphate-buffered saline (PBS) at 20° C. and replaced with Equilibration Medium containing: DMEM (high glucose), 0.2% Bovine Serum Albumin (BSA) (low endotoxin, fatty acid-free, Sigma, cat. #A8806) and the appropriate Treatment under study. The J774 culture was then incubated for 24 hours.
J774 cells ongoing the ^3H-cholesterol equilibration phase and/or HepG2 cells before co-culture can be treated by various means. Pharmacological agent is diluted in the appropriate culture medium with 0.2% BSA and vehicle (solvent) is tested in parallel. Modulation of gene expression is also accomplished at this step, by transfection of siRNA according to the manufacturer's protocol, and a control non-silencing RNA is tested in parallel.
After 24 hour of incubation, equilibration medium from J774 culture and culture medium from HepG2 cells were discarded. Cells were washed with 1 mL (J774) or 2 mL (HepG2) of PBS at 20° C. and the wash medium discarded. […]

J774 macrophages = test: Co-culture assay: Specific Chol Efflux from 3H-cholesterol-labeled J774 macrophages; type: cell-based, murine
Excerpt: as §1, §2, §3
Loaded plates were pre-incubated in an incubator at 37° C. with 5% CO2 for 30-45 min without cells in order to improve later cell attachment and maximize cell spreading on the insert membrane during cell culture. After pre-incubation, the media was removed. The wells of the Transwell plates were then filled with 1.5 mL of EMEM (low glucose) supplemented with 10% FBS and 1% penicillin/streptomycin and HepG2 cells were seeded at a density of 60,000 cells per cm^2 in 0.5 mL EMEM (low glucose) supplemented with 10% FBS and 1% penicillin/streptomycin on each insert.
as §4, §5, §6
Following the 24-hour incubation of J774 cells, the labeling medium was removed from the plates and discarded. […]

[1] = HepG2 pre-treated 25 μM, acceptor human LDL
[2] = HepG2 pre-treated 25 μM, acceptor human LDL, listed as Atorvastatin

CC(C)c1c(C(=O)Nc2ccccc2)c(-c2ccccc2)c(-c2ccc(F)cc2)n1CC[C@@H](O)C[C@@H](O)CC(=O)O [atorvastatin]
combined effect on Specific Chol Uptake (HepG2 hepatocytes; acceptor apoB-depleted serum): not
combined effect on Specific Chol Uptake (HepG2 hepatocytes; acceptor complete human serum): additive effect
effect on Specific Chol Uptake (HepG2 hepatocytes; [1]): increased significantly
effect on Specific Chol Uptake (HepG2 hepatocytes; [2]): increased
effect on Specific Chol Uptake (HepG2 hepatocytes; HepG2 pre-treated overnight 25 μM, acceptor apoB-depleted serum): reduced effect and not
effect on Specific Chol Uptake (HepG2 hepatocytes; HepG2 pre-treated overnight 25 μM, acceptor complete human serum): significantly increased
effect on Specific Chol Uptake (HepG2 hepatocytes; HepG2 pre-treated overnight 25 μM, acceptor complete human serum, listed as Atorvastatin): increased
effect on Chol Uptake (HepG2 hepatocytes; hepatocytes pre-treated 10 μM, acceptor apoB-depleted serum, compared to complete serum): reduced effect
effect on hepatic Chol Uptake (HepG2 hepatocytes; hepatocytes pre-treated 10 μM, acceptor complete human serum): increased
effect on Specific Chol Efflux (J774 macrophages; [1]): did not modify
effect on Specific Chol Efflux (J774 macrophages; [2]): did not modulate
effect on Specific Chol Efflux (J774 macrophages; HepG2 pre-treated overnight 25 μM, acceptor human serum): did not change; also recorded: did not modulate
effect on Specific Chol Efflux (J774 macrophages; HepG2 pre-treated overnight 25 μM, acceptor human serum, listed as Atorvastatin): did not affect

From patent US11840707B2, “Co-culture system and method for in vitro assessment of reverse cholesterol transport” (INSTITUT DE CARDIOLOGIE DE MONTREAL, priority 2016, dated 2023)
